From US20240182911A1
No constants are given. Whether binding was seen depends on the method and setting. Some binding calls cover weakened binding; strength is not graded here.

Columns and labels:
[1] = target: angiotensin II type 1 receptor (AT1R) with FLAG peptide fused to its N-terminus (human) (UniProt P30556); test: on-yeast affinity assay
[2] = target: angiotensin II type 1 receptor (AT1R) with FLAG peptide fused to its N-terminus (human) (UniProt P30556); test: radioligand competition binding assay

B1: AT110 Y113H (VHH)
VHH: QVQLQESGGGLVQAGGSLRLSCAASGNIFDADIMGWYRQAPGKERELVASITDGGSTNYADSVKGRFTISRDNAKNTVYLQMNSLKPEDTAVYYCAAIAYPDIPTYFDYDSDHFYWGQGTQVTVSS
binding [1]: binds
binding [2]: binds
